These are yes or no findings as the source states them, for the method shown. Binding seen in cells or lysates may run through a third protein. Some results given as binding are weak or reduced against the parent protein; the word gives no strength.

By UniProt entry, the sequences of proteins in these tests, tags left out.
UniProt Q03135: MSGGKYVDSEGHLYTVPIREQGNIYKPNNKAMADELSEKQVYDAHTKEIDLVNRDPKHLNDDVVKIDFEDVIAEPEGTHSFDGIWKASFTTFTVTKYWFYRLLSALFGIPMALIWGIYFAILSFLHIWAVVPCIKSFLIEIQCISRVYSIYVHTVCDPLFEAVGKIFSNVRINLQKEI
UniProt O15105: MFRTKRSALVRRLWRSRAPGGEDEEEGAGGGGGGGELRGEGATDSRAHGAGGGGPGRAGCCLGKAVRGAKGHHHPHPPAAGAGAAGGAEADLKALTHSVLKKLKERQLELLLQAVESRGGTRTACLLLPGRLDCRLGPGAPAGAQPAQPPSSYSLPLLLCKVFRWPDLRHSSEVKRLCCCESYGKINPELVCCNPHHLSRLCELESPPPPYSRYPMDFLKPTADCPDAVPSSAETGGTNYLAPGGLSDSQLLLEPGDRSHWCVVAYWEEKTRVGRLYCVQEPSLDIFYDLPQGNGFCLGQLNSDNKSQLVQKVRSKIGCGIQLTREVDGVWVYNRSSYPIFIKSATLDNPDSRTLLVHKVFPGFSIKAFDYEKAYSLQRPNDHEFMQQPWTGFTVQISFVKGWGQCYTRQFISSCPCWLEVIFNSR

This note sets out measurements from PMC5103195.

The assay addresses T1, Transforming growth factor-β receptor I (TGFRI) (human (endogenous in MDA-MB-231)) (UniProt P36897).
T1 sequence: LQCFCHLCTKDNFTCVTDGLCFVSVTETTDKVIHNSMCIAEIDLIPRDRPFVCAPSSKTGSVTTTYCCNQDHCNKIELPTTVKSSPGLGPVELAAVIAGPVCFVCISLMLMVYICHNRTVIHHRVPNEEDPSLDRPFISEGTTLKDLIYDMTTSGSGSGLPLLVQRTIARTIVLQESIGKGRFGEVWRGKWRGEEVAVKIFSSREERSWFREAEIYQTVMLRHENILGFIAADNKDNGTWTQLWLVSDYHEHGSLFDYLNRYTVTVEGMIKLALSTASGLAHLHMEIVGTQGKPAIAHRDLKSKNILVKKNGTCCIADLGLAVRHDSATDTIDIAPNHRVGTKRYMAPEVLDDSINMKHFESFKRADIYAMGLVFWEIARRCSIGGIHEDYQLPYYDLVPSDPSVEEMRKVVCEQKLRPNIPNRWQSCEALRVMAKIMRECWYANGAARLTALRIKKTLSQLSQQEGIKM
The assay can be described thus: co-IP; whole cell lysates of MDA-MB-231 cells, untreated or treated with FFLZ (200 μg/ml) for 30 min (Fig. 5D) or 60 min (Fig. 5E); IP as indicated, then immunoblotting; endogenous proteins.

In the case of Caveolin-1 (from UniProt Q03135 1-178), the binding result is “binds”.

For Smad7 (from UniProt O15105 1-426), the binding result was “binds”.
